Experimental data taken from the supplement of paper PMC10849652.
This is one part of the list.

Protein sequences, listed by entry. Tags and fused reporters are not part of them. Lines headed by an entry give the natural chain unless they say otherwise; changes in a name come on top.
UniProt P54105: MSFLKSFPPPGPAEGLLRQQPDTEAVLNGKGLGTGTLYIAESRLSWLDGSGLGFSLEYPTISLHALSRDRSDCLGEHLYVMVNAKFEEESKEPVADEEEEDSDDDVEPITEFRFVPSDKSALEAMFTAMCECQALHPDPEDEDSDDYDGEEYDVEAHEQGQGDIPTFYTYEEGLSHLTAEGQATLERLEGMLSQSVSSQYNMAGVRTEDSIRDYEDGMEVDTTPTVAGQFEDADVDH
UniProt Q8N0X4: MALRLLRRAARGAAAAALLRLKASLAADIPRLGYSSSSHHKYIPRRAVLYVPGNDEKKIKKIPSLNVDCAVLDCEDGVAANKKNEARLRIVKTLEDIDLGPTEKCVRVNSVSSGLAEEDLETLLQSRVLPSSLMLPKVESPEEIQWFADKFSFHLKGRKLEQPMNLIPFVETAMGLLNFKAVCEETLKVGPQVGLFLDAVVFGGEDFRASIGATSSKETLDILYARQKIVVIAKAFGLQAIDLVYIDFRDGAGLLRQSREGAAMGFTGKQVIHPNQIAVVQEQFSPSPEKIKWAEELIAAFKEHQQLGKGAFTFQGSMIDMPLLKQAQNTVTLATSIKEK
UniProt Q8N2M8: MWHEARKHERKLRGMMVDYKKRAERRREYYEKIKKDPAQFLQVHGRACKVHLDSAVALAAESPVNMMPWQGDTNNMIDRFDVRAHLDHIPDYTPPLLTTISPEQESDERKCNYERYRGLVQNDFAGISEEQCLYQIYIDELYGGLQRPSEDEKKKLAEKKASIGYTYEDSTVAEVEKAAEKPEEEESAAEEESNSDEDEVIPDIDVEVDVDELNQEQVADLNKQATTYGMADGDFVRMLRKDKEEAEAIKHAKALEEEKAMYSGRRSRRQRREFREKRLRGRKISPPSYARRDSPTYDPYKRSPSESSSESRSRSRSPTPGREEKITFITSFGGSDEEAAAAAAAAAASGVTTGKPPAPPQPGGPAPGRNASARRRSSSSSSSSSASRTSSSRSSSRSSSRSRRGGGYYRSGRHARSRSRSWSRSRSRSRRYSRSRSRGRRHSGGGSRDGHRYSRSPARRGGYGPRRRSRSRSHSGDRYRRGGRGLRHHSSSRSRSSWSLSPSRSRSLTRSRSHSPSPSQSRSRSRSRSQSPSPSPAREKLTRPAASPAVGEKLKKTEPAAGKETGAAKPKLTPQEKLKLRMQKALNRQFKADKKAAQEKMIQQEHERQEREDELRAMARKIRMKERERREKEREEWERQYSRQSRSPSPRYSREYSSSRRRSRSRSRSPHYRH
UniProt Q96NY7: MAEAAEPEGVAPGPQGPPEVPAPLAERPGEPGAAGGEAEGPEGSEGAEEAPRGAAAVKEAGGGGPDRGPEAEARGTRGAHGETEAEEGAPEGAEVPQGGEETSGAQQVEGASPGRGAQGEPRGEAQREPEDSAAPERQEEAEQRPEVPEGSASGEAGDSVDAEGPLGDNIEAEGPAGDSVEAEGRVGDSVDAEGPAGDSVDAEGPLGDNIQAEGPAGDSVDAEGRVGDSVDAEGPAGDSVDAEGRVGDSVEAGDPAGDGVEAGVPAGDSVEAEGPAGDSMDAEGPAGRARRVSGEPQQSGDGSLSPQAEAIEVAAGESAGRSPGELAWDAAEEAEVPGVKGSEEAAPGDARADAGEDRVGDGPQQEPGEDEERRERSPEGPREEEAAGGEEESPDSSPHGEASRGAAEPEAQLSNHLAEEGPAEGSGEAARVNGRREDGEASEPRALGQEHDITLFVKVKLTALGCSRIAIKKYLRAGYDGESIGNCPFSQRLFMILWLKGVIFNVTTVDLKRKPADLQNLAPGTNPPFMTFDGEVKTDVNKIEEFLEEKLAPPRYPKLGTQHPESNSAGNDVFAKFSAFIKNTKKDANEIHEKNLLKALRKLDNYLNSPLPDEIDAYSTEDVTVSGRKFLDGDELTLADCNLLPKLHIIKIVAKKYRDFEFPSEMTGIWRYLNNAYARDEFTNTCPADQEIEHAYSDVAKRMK
UniProt Q96KA5: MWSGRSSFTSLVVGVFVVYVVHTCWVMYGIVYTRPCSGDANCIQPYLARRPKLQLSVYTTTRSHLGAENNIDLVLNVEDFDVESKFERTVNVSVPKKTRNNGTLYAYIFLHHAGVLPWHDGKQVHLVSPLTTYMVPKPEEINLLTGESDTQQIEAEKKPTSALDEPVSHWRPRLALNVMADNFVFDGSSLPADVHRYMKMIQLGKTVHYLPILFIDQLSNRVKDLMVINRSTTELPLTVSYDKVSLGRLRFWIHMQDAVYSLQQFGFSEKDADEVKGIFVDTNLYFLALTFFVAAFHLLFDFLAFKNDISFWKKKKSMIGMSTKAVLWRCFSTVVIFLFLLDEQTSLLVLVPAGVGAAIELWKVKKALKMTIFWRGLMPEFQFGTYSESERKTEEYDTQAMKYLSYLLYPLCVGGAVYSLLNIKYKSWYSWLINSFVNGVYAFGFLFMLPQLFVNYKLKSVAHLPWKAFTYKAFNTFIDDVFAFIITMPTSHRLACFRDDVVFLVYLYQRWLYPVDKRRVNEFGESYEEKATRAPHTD
UniProt P09496: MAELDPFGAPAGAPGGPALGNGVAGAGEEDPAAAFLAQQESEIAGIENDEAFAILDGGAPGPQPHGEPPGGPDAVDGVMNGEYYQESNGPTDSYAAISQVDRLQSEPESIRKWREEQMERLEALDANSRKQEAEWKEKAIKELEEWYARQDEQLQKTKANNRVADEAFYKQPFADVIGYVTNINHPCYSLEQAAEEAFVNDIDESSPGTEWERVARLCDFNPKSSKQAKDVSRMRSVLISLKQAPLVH
UniProt P56749: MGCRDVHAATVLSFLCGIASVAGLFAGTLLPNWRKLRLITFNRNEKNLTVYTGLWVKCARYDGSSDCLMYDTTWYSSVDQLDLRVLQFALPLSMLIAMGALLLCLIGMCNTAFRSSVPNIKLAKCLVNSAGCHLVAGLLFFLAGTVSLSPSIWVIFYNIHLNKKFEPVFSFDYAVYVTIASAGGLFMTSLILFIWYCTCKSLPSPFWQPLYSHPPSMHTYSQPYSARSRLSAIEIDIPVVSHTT
UniProt P09497: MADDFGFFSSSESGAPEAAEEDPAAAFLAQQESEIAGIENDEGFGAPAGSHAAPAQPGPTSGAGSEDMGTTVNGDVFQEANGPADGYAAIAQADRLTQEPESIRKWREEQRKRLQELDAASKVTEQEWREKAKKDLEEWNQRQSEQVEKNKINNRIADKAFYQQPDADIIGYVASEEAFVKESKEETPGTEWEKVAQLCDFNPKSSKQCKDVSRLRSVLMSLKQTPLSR
UniProt P51790: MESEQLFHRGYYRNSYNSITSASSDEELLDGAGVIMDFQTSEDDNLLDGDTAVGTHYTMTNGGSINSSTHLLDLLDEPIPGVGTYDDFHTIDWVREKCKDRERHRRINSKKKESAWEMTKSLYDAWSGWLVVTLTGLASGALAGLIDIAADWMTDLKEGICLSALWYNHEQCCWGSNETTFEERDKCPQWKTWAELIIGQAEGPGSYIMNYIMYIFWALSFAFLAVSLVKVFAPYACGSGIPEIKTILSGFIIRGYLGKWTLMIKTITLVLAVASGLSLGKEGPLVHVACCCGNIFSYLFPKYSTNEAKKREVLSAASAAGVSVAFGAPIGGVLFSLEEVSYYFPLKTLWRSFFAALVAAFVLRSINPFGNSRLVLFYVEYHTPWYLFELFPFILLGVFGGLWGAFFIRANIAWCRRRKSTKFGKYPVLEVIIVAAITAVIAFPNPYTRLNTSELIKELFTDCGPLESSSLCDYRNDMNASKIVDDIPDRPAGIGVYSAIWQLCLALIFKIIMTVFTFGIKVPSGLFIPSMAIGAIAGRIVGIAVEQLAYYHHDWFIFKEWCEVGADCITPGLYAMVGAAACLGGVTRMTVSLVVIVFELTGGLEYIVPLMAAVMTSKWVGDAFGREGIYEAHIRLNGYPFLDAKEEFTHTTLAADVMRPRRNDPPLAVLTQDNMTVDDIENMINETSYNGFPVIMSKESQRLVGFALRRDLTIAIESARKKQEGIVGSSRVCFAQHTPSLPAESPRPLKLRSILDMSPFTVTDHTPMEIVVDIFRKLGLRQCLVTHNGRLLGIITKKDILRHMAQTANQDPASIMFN
UniProt Q9HAW4: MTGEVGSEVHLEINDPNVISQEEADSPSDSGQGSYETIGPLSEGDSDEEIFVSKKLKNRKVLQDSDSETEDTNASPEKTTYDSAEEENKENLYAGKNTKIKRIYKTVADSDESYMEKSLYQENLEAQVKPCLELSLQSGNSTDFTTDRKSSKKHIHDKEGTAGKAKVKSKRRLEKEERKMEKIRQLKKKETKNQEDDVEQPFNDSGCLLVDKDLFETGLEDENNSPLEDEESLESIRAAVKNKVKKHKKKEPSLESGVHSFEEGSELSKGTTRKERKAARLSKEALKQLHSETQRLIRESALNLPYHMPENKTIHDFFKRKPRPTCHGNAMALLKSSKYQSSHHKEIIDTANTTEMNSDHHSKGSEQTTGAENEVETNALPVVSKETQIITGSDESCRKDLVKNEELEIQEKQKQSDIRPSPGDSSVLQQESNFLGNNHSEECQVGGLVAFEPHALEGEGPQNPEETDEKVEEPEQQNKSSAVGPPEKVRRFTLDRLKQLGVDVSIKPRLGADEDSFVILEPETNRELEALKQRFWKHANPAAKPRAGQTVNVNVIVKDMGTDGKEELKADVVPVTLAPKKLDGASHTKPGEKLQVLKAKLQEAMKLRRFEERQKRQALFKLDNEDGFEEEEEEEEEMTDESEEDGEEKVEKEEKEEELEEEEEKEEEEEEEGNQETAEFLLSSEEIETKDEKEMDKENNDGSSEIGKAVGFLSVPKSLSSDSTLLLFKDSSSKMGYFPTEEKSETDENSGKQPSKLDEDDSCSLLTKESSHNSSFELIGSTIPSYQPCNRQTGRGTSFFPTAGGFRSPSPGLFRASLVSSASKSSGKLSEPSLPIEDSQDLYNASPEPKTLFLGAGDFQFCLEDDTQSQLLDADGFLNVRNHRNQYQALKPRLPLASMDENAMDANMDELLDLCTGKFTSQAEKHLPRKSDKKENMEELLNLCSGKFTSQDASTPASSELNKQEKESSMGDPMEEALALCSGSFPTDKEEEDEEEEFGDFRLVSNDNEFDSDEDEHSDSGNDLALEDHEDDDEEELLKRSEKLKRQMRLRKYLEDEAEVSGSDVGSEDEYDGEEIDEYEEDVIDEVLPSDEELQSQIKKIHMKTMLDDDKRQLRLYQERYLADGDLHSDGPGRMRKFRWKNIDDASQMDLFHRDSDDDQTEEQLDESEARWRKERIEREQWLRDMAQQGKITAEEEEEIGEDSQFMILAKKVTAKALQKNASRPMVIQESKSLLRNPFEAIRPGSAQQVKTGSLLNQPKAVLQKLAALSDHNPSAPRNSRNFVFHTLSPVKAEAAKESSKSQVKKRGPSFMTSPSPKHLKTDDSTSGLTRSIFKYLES
UniProt Q9Y696: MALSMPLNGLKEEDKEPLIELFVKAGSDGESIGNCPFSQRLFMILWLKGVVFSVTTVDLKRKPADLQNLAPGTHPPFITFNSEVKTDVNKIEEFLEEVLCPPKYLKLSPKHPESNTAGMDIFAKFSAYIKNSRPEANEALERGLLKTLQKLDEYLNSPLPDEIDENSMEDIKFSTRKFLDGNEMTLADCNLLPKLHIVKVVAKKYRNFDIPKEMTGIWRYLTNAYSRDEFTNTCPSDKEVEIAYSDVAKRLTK
UniProt Q16740, whole entry, looked up: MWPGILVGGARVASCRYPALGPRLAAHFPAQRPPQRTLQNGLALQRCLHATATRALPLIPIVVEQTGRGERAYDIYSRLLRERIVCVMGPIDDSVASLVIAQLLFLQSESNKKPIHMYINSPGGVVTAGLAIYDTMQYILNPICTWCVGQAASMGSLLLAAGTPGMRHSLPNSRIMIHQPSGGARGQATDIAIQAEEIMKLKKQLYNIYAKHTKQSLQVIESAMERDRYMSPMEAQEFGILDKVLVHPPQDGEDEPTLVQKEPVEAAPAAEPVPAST
UniProt Q96AJ1: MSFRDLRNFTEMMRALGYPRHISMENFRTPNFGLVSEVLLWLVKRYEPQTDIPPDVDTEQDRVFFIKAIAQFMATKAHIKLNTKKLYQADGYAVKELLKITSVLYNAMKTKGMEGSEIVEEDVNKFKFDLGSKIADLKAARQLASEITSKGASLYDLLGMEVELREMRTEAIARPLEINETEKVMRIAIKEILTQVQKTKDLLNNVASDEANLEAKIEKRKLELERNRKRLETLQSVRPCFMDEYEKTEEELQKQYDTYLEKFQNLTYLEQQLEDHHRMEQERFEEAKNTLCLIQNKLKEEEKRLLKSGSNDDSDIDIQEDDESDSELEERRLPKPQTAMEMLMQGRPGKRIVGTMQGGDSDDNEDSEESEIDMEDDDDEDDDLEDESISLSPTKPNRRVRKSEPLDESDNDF
UniProt Q8IZR5: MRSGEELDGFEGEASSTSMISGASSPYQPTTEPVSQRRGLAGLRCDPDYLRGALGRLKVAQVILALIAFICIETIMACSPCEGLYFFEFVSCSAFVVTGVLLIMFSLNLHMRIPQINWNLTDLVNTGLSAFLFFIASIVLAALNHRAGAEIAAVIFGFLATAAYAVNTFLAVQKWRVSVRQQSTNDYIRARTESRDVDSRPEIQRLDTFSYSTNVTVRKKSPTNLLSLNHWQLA

compound: Cc1ccc(NC(=O)c2ccc(CN3CC[C@H](N(C)C)C3)c(C(F)(F)F)c2)cc1Nc1nccc(-c2cncnc2)n1 [bafetinib]; experiment: log2 fold change, soluble protein after heating vs DMSO (PISA); higher = thermal stabilisation; K562 lysate, 10 uM; active = over 0.2 and 3.5 SD of the protein, either way, in both replicates (recomputed)
In short: (§1)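 K562 pellets were dounce-homogenised in PBS pH 7.4 with 1 mM MgCl2, and the crude extract at 1 mg/mL protein was treated with 10 μM compound for 30 min. Aliquots were heated for 3 min across 48°C-58°C, pooled, and brought to 0.5% NP-40 at 4°C; soluble protein was the supernatant after 21,000xg for 90 min. Soluble protein was quantified by TMTpro 16plex LC-MS/MS with channel sums equalised, and reported as log2 fold change in thermal stability against DMSO controls, with values from duplicates.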

log2 fold change, inactive:
CLNS1A (UniProt P54105) -0.012
CLYBL (UniProt Q8N0X4) 0.067
CLASRP (UniProt Q8N2M8) -0.119
CLCC1 (UniProt Q96S66) -0.033
CLGN (UniProt O14967) -0.009
CLDND1 (UniProt Q9NY35) 0.031
CLIC6 (UniProt Q96NY7) -0.059
CLPTM1L (UniProt Q96KA5) -0.064
CLTA (UniProt P09496) 0.019
CLDN12 (UniProt P56749) -0.138
CLUH (UniProt O75153) -0.044
CLIP4 (UniProt Q8N3C7) -0.018
CLTB isoform 2 (UniProt P09497) 0.035
CLCN3 (UniProt P51790) -0.004
CLSPN (UniProt Q9HAW4) -0.032
CLPX (UniProt O76031) -0.005
CLCN3 isoform 2 (UniProt P51790) -0.005
CLIC4 (UniProt Q9Y696) -0.001
CLPB isoform 2 (UniProt Q9H078) -0.072
CLEC16A (UniProt Q2KHT3) -0.06
CLCN2 (UniProt P51788) 0.015
CLASP2 (UniProt O75122) -0.199
CLPTM1 (UniProt O96005) -0.053
CLPP (UniProt Q16740) 0.035

compound: Cc1cccc(CC(=O)N2CCc3c2ccc(-c2cn(C)c4ncnc(N)c24)c3F)n1; experiment: as above
In short: as §1

log2 fold change, inactive:
CLNS1A (UniProt P54105) -0.02
CLYBL (UniProt Q8N0X4) 0.101
CLASRP (UniProt Q8N2M8) -0.045
CLCC1 (UniProt Q96S66) 0.037
CLGN (UniProt O14967) 0.05
CLDND1 (UniProt Q9NY35) 0.011
CLUAP1 (UniProt Q96AJ1) 0.025
CLIC6 (UniProt Q96NY7) 0.036
CMTM4 (UniProt Q8IZR5) -0.024
CLPTM1L (UniProt Q96KA5) 0.137
CLTA (UniProt P09496) -0.016
CLDN12 (UniProt P56749) -0.137
CLUH (UniProt O75153) 0.032
CLIP4 (UniProt Q8N3C7) -0.006
CLTB isoform 2 (UniProt P09497) -0.036
CKLF (UniProt Q9UBR5) 0.087
CLCN3 (UniProt P51790) 0.13
CLSPN (UniProt Q9HAW4) -0.001
CLPX (UniProt O76031) -0.014
CLCN3 isoform 2 (UniProt P51790) 0.024
CLIC4 (UniProt Q9Y696) 0.074
CLPB isoform 2 (UniProt Q9H078) 0.039
CLEC16A (UniProt Q2KHT3) -0.142
CLCN2 (UniProt P51788) -0.044
CLASP2 (UniProt O75122) 0.067
CLPTM1 (UniProt O96005) 0.083
CLPP (UniProt Q16740) -0.012
CLSTN1 (UniProt O94985) 0.151
CISD3 (UniProt P0C7P0) 0.028
